Assay results: publication PMC10403363, “Mechanism of ribosome-associated mRNA degradation during tubulin autoregulation” (Molecular Cell, 2023)

B1: SCAPER (S-phase cyclin A associated protein residing in the ER), endogenous (protein, UniProt Q9BY12 1-1400)
chain: MMASFQRSNSHDKVRRIVAEEGRTARNLIAWSVPLESKDDDGKPKCQTGGKSKRTIQGTHKTTKQSTAVDCKITSSTTGDKHFDKSPTKTRHPRKIDLRARYWAFLFDNLRRAVDEIYVTCESDQSVVECKEVLMMLDNYVRDFKALIDWIQLQEKLEKTDAQSRPTSLAWEVKKMSPGRHVIPSPSTDRINVTSNARRSLNFGGSTGTVPAPRLAPTGVSWADKVKAHHTGSTASSEITPAQSCPPMTVQKASRKNERKDAEGWETVQRGRPIRSRSTAVMPKVSLATEATRSKDDSDKENVCLLPDESIQKGQFVGDGTSNTIESHPKDSLHSCDHPLAEKTQFTVSTLDDVKNSGSIRDNYVRTSEISAVHIDTECVSVMLQAGTPPLQVNEEKFPAEKARIENEMDPSDISNSMAEVLAKKEELADRLEKANEEAIASAIAEEEQLTREIEAEENNDINIETDNDSDFSASMGSGSVSFCGMSMDWNDVLADYEARESWRQNTSWGDIVEEEPARPPGHGIHMHEKLSSPSRKRTIAESKKKHEEKQMKAQQLREKLREEKTLKLQKLLEREKDVRKWKEELLDQRRRMMEEKLLHAEFKREVQLQAIVKKAQEEEAKVNEIAFINTLEAQNKRHDVLSKLKEYEQRLNELQEERQRRQEEKQARDEAVQERKRALEAERQARVEELLMKRKEQEARIEQQRQEKEKAREDAARERARDREERLAALTAAQQEAMEELQKKIQLKHDESIRRHMEQIEQRKEKAAELSSGRHANTDYAPKLTPYERKKQCSLCNVLISSEVYLFSHVKGRKHQQAVRENTSIQGRELSDEEVEHLSLKKYIIDIVVESTAPAEALKDGEERQKNKKKAKKIKARMNFRAKEYESLMETKNSGSDSPYKAKLQRLAKDLLKQVQVQDSGSWANNKVSALDRTLGEITRILEKENVADQIAFQAAGGLTALEHILQAVVPATNVNTVLRIPPKSLCNAINVYNLTCNNCSENCSDVLFSNKITFLMDLLIHQLTVYVPDENNTILGRNTNKQVFEGLTTGLLKVSAVVLGCLIANRPDGNCQPATPKIPTQEMKNKPSQGDPFNNRVQDLISYVVNMGLIDKLCACFLSVQGPVDENPKMAIFLQHAAGLLHAMCTLCFAVTGRSYSIFDNNRQDPTGLTAALQATDLAGVLHMLYCVLFHGTILDPSTASPKENYTQNTIQVAIQSLRFFNSFAALHLPAFQSIVGAEGLSLAFRHMASSLLGHCSQVSCESLLHEVIVCVGYFTVNHPDNQVIVQSGRHPTVLQKLCQLPFQYFSDPRLIKVLFPSLIAACYNNHQNKIILEQEMSCVLLATFIQDLAQTPGQAENQPYQPKGKCLGSQDYLELANRFPQQAWEEARQFFLKKEKK
modifications: biotinylated by TurboID in cells
B2: SCAPER-FLAG overexpressed in HEK293 T-REx cells (protein, UniProt Q9BY12 1-1400)
chain: B1 chain
modifications: biotinylated by TurboID in cells

Key:
[1] = target: T1, TurboID-FLAG-TTC5 (human) (UniProt Q8N0Z6); assay: proximity labelling; TurboID-FLAG-TTC5 (WT or K97A) in TTC5-KO HEK T-REx cells; DMSO, colchicine or nocodazole 30 min, then 50 uM biotin 2.5 h; streptavidin beads, stringent washes, TMT quantitative mass spectrometry
T1 sequence: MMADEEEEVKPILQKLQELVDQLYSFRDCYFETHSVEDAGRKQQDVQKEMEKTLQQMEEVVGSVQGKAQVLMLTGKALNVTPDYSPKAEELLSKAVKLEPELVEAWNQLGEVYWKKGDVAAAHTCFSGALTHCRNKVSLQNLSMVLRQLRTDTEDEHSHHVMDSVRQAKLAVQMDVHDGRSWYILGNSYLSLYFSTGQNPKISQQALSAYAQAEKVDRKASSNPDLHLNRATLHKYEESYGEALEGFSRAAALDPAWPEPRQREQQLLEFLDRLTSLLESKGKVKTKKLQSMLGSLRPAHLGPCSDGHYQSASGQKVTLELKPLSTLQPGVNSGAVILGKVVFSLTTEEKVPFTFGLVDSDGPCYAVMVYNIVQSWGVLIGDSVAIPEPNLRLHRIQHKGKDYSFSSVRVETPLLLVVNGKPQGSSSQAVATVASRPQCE

[2] = target: T1, TurboID-FLAG-TTC5 (human); assay: proximity labelling; TurboID-TTC5 cell lines transfected with SCAPER-FLAG; colchicine 10 uM 30 min, then 50 uM biotin 2.5 h; biotinylated proteins isolated on streptavidin beads and blotted with anti-SCAPER

Binder	binding [1]	binding [2]
B1	binds	
B2		binds

Results are given in words; binding and its absence hold for the method and conditions named. In cells and extracts the contact can be indirect. A yes stands for co-enrichment or nearness to the bait. Other partners may have been found. Where a sequence is shown, tags or fusion partners need not be part of it.
